Experiments:
[1] = in vivo; settings: ip, mouse, intraperitoneal route, read-out: LDO, maximum tolerated dose (M.T.D.), highest dose which provokes no deaths
Protocol: Acute toxicity was determined on the mouse. For this purpose, a dose of the compound to be tested was administered to batches of 5 mice, by intraperitoneal route, so that each batch received a higher dose than the preceding batch.

[2] = system: γ-aminobutyric α-ketoglutaric transaminase (GABA T); assay: Inhibition of GABA T in vitro (coupled spectrophotometric test with GABASE); format: biochemical, Pseudomonas fluorescens; settings: comparison of Ki with sodium di-n-propylacetate (0.8 m mol/ml)
Protocol: This test was undertaken "in vitro" in the absorption cell of a double-beam U.V. spectrophotometer.
The activity of GABA T was determined by coupling this enzyme with an excess of succinosemialdehyde dehydrogenase (NADP^+) so that the rate of formation of the succinosemialdehyde dehydrogenase coenzyme (NADPH) was limited by the activity of the GABA T. The coupling of the two reactions was as follows:
The activity of GABA T was measured by following the reduction rate (v) of NADP^+ which corresponds to the evolution of the optical density at 340 mμ on the spectrophotometer.
Determination of the activity rate of GABA T by the principle hereabove described can be effected with either limiting concentrations or a saturating concentration of one of the substrates, in the present case GABA, in each instance, in the presence of a saturating concentration of the second substrate namely α-ketoglutarate. Thus, it is possible to discover the activity rate of GABA T in relation to the concentration of GABA and in this way, to determine the affinity of GABA T for GABA. […]
This constant is expressed in units of concentration, in the present case, in m mol per ml and can be determined by plotting all the curves corresponding to 1/v = f (I) for a saturating concentration of GABA and for different limiting concentrations of GABA. […]

CC(C)CC(=O)O [Compound D, 3-methyl-butanoic acid]
MTD [1]: > 400 mg/kg | activity as GABA T inhibitor compared with sodium di-n-propylacetate [2]: more active
